Measured values taken from publication PMC4546648.
These are yes or no findings as the source states them, for the method shown. In cells and extracts the contact can be indirect. Binding calls can cover weak binding; strength is not graded here. For some of these results: Tags and fused reporters may be left off the sequences shown.

Sequences of proteins named here, by UniProt entry; tags and fusion partners are left off. A change or cut given only in a name is not applied to a line headed by its entry.
UniProt P16885: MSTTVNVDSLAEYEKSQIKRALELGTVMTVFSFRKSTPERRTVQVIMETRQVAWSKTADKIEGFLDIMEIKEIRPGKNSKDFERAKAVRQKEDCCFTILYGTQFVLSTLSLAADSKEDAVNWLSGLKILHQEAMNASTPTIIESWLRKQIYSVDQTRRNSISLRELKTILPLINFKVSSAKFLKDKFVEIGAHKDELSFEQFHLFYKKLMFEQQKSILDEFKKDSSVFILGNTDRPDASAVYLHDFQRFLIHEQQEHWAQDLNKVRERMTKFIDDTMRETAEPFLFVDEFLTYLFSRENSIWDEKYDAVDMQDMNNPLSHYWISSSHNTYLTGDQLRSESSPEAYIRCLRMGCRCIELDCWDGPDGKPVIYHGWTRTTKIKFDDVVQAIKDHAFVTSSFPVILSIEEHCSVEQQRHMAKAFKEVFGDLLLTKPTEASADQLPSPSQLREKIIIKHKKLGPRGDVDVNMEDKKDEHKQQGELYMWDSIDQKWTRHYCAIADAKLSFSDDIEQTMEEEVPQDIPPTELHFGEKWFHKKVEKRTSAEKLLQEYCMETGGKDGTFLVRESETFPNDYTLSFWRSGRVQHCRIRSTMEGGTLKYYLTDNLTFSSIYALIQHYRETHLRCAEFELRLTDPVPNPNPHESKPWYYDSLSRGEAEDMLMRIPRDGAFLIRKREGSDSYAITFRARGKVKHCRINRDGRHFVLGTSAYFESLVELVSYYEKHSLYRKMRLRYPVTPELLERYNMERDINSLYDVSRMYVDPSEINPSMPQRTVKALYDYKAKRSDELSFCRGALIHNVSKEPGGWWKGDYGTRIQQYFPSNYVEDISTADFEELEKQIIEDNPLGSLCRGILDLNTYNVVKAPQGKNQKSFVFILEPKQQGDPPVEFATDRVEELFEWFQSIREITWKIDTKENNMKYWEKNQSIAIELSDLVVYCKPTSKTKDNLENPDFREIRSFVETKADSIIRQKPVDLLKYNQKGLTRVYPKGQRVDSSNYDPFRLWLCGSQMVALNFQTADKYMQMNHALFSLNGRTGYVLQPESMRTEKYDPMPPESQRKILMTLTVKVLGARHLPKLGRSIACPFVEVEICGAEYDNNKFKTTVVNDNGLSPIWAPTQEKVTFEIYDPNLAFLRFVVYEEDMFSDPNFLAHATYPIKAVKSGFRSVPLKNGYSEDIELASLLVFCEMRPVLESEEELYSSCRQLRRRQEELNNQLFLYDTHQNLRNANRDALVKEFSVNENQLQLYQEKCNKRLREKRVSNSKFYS

What was measured:
[1] = molecular target: T1, S-tagged PLCγ1 wt (UniProt P19174); experiment: co-IP; HEK293T co-transfected; lysed in IP buffer (150 mM NaCl, 25 mM tris HCl pH 7.6, 1 mM EDTA, 1% glycerol, 0.2% NP-40); S-tagged construct captured on S protein agarose beads overnight at 4°C; western blot
T1 sequence: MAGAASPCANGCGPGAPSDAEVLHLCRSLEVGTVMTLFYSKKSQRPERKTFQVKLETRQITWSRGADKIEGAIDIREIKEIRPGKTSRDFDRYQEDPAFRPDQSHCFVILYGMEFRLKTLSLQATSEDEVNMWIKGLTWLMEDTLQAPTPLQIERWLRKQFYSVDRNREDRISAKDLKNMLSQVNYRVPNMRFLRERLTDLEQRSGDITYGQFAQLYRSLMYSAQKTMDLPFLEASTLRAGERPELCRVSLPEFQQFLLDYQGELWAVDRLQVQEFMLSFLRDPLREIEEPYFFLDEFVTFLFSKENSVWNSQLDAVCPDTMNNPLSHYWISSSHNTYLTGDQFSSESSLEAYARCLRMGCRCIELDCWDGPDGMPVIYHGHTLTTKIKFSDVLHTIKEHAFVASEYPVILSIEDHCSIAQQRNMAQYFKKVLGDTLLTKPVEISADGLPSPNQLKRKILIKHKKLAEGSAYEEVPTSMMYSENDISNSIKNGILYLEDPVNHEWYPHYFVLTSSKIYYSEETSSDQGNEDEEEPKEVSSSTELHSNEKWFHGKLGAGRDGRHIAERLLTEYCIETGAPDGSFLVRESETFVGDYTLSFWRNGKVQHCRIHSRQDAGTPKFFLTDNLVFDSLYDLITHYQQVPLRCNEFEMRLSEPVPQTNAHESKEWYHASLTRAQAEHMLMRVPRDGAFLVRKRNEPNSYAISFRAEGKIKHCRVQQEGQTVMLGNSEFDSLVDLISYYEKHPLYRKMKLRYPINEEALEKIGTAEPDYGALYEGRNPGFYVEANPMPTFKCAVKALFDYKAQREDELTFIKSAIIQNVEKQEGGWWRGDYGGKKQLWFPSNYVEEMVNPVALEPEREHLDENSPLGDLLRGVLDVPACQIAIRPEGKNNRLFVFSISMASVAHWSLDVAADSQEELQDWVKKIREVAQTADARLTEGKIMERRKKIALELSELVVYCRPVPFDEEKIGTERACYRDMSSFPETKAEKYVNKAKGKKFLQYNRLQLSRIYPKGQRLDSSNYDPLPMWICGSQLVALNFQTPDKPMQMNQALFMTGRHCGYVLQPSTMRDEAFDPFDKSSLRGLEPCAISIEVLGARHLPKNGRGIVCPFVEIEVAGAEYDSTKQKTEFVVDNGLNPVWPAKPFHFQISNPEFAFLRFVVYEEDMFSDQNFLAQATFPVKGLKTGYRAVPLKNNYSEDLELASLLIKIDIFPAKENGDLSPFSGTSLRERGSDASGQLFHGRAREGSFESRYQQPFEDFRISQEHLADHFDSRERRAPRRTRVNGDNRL

[2] = molecular target: isolated PLCγ2 cSH2 domain wt, S-tagged (UniProt P16885); experiment: as above
[3] = molecular target: GST-K15P cytoplasmic domain (aa 347-489) (Kaposi's sarcoma herpesvirus (KSHV, HHV-8)) (UniProt Q9QR69); experiment: pull-down; GST-K15P cytoplasmic domain on glutathione beads incubated overnight at 4°C with pre-cleared lysate of HEK293T transfected with PLCγ2 constructs; western blot; only the target purified

| Substance | binding [2] | further results |
| --- | --- | --- |
| K15M wt |  | binding [1]: binds |
| K15P Y481F (from UniProt Q9QR69 27-489) | no binding |  |
| K15P wt (from UniProt Q9QR69 27-489) | binds |  |
| isolated PLCγ2 cSH2 domain wt, S-tagged (from UniProt P16885) (domain or fragment) |  | binding [3]: binds |
